In article PMC8810813:
These are yes or no findings as the source states them, for the method shown. Binding seen in cells or lysates may run through a third protein. Some binding calls cover weakened binding; strength is not graded here. Each block holds one binder with its values, some of them ahead of it.

Columns and labels:
Experiment in all cases: co-IP; pooled rat SMC lysate in RIPA buffer, precleared with anti-species-specific IgG beads; antibodies to EDNRB, EDNRA, Myocardin and SRF 1 h at 4°C, protein A/G agarose beads overnight at 4°C; western blotting
[1] = biological target: T1, Myocardin (rat (endogenous in rat aortic SMCs)) (UniProt Q8R5I7)
T1 sequence: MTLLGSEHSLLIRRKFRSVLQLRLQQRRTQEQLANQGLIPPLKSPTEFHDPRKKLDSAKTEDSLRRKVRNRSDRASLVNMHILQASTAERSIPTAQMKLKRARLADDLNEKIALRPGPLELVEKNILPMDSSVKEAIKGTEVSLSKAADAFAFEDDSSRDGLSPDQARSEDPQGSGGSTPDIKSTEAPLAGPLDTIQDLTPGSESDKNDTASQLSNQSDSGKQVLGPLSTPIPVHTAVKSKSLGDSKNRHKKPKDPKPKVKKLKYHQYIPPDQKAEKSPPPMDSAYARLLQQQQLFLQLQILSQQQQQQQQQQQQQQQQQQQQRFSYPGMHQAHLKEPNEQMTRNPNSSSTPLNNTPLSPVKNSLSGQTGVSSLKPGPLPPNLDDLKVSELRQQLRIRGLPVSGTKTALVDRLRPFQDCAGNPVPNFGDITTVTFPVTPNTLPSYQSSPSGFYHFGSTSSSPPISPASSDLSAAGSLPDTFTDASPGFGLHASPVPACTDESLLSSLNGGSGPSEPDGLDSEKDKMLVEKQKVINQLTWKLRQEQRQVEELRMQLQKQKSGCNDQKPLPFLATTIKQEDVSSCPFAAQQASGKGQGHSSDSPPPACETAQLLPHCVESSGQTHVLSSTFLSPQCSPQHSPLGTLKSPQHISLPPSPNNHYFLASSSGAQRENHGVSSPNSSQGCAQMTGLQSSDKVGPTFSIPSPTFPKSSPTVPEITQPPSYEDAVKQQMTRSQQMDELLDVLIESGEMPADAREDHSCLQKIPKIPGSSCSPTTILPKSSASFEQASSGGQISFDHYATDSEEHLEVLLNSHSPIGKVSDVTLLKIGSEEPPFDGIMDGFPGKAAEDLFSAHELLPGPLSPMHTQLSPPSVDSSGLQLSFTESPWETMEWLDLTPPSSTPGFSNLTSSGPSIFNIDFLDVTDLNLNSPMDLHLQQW

[2] = biological target: T2, serum response factor (SRF) (rat (endogenous in rat aortic SMCs)) (UniProt D3ZHH8)
T2 sequence: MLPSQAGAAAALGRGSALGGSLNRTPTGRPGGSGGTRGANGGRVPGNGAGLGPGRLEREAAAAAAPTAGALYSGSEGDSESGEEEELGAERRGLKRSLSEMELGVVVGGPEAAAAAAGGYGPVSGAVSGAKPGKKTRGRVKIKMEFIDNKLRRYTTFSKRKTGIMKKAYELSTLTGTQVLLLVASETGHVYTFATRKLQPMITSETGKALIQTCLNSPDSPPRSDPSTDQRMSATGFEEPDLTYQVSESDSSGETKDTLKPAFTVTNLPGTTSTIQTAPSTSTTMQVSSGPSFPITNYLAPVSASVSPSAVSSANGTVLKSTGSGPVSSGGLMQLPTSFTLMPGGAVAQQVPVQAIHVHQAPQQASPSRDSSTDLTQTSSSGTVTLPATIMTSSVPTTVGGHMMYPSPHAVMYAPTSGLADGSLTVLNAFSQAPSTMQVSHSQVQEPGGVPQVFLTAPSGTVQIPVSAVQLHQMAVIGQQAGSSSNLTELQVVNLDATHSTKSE

[3] = biological target: T3, serum response factor (SRF) (rat (endogenous in rat aortic SMCs)), D3ZHH8; conditions: remark: other sources report otherwise
T3 chain: T2 sequence

[4] = biological target: T4, endothelin receptor type B (EDNRB) (rat (endogenous in rat aortic SMCs)) (UniProt P21451)
T4 sequence: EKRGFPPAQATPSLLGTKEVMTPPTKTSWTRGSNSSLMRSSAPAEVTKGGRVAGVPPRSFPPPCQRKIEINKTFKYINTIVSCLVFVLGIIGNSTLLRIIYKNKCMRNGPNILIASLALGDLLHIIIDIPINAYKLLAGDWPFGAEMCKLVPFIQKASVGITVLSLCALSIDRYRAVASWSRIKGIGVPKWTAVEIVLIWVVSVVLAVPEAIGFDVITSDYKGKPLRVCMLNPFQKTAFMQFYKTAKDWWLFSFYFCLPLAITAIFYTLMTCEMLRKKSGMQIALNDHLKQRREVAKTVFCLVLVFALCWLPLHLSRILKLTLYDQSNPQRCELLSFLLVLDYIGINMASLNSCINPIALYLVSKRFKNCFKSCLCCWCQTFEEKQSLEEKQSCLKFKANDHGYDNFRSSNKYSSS

binding [1]: binds
binding [2]: binds
B1: endothelin receptor type B (EDNRB) (receptor, UniProt P21451 27-442)
chain: T4 sequence

binding [3]: binds
B2: Myocardin, Q8R5I7 1-938 (protein)
chain: T1 sequence

binding [4]: binds
binding [1]: binds
binding [2]: binds
B3: endothelin receptor type A (EDNRA) (receptor, UniProt P26684 21-426)
chain: DNAERYSANLSSHVEDFTPFPGTEFNFLGTTLQPPNLALPSNGSMHGYCPQQTKITTAFKYINTVISCTIFIVGMVGNATLLRIIYQNKCMRNGPNALIASLALGDLIYVVIDLPINVFKLLAGRWPFDHNDFGVFLCKLFPFLQKSSVGITVLNLCALSVDRYRAVASWSRVQGIGIPLITAIEIVSIWILSFILAIPEAIGFVMVPFEYKGEQHRTCMLNATTKFMEFYQDVKDWWLFGFYFCMPLVCTAIFYTLMTCEMLNRRNGSLRIALSEHLKQRREVAKTVFCLVVIFALCWFPLHLSRILKKTVYDEMDKNRCELLSFLLLMDYIGINLATMNSCINPIALYFVSKKFKNCFQSCLCCCCHQSKSLMTSVPMNGTSIQWKNQEQNHNTERSSHKDSMN
